Data published in PubChem BioAssay AID493014 (National Center for Advancing Translational Sciences (NCATS), 2011).
The list shows a part of the results. These are further read-outs of the screen, such as a control signal, another cell line or another target. No call is given for them. Most of these compounds were active or inconclusive in the main read-out, so they are no random draw. Words in brackets tell the shape of the fitted curve; partial curves, single points and poor fits give uncertain potencies.

Assay: qHTS Assay to Find Inhibitors of Chronic Active B-Cell Receptor Signaling
Conditions: ABC-DLBCL IkBa-CBG/CBR reporter, luminescence ratio (green luciferase fused to IkBa over red control in TMD8 lymphoma cells), 4 h
In short: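 Doxycycline induced both beetle luciferases in TMD8 lymphoma cells; IKK-driven degradation limits the IkappaBalpha-fused green signal, while red luminescence normalises for cell number and nonspecific effects. Compounds tested up to 46 uM, 4 hrs.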

[1] = measured here: CBR red luminescence, cell number
[2] = measured here: IkBa-CBG green luminescence

| SMILES | AC50 [1] | AC50 [2] |
| --- | --- | --- |
| Cc1cc(NC(=O)C2CCN(S(=O)(=O)c3cccs3)CC2)no1 | 10 µM [falling, partial curve, poor fit] | – |
| O=C(CNC(=O)c1cccc(F)c1)OCC(=O)N1CCCc2ccccc21 | 8.2 µM [rising, partial curve] | – |
| O=C(Nc1nc2ccccc2s1)c1ccc(OCC2CCCO2)cc1 (centres undefined) | 29.1 µM [falling, single point] | – |
| Nc1ncnc(Nc2ccccn2)c1[N+](=O)[O-] | 35.5 µM [falling, single point] | – |
| Cc1ccc(C(=O)Nc2ncc(C)s2)s1 | 14.1 µM [falling, single point] | – |
| CCN(CC)c1ccc(NC(=O)c2cc(OC)cc(OC)c2)c(C)c1 | 7.31 µM [rising, partial curve, poor fit] | 14.6 µM [falling, partial curve, poor fit] |
| CCCn1nnnc1SCC(=O)NNC(=O)C1CCCCC1 | 0.631 µM [rising, full curve, poor fit] | – |
| N#Cc1cccc(NC(=O)CNc2cccc(S(=O)(=O)N3CCCCC3)c2)c1 | 16.4 µM [falling, single point] | 7.31 µM [rising, partial curve, poor fit] |
| N/C(=C\C(=O)c1cc(Cl)ccc1O)C(Cl)(Cl)Cl | 3.98 µM [rising, full curve, poor fit] | 7.94 µM [falling, partial curve] |
| COc1ccc(F)cc1CN1CCN(C(=O)CCC(=O)Nc2nnc(C3CCCCC3)s2)CC1 | 1.41 µM [rising, partial curve, poor fit] | – |
| Clc1ccc2c(c1)CCc1cccnc1C2=C1CCNCC1 | 12.6 µM [falling, partial curve, poor fit] | – |
| Nc1c(C(=O)NCc2ccco2)c2nc3ccccc3nc2n1CCc1ccccc1F | 20.6 µM [falling, single point] | – |
| COCC(=O)Nc1nc(-c2ccccc2)ns1 | 8.2 µM [falling, partial curve] | – |
| COCCNC(=O)CCn1nc(-c2ccc(C)cc2)ccc1=O | 15.8 µM [falling, partial curve, poor fit] | – |
| Cc1ccc(C(=O)NC(=S)N(C)C2CCCCC2)cc1 | 0.562 µM [rising, full curve, poor fit] | – |
| Cc1c(Cl)cccc1-n1c(SCC(=O)N(C)Cc2ccccc2)nnc1-c1ccncc1 | 2.31 µM [falling, partial curve, poor fit] | – |
| CCOC(=O)c1c(NC(=O)C2CCCCC2C(=O)O)sc2c1CCCCC2 (centres undefined) | 22.4 µM [falling, single point] | – |
| CC1CCCCN1C(=O)c1ccc(C(=O)Nc2ccc(F)cc2)cc1 (centres undefined) | 14.6 µM [falling, single point] | – |
| COc1cc(C2C3=C(CC(C)(C)CC3=O)N(C)C3=C2C(=O)CC(C)(C)C3)cc(Br)c1O | 6.31 µM [rising, single point] | – |
| O=C(Nc1ccc(Cl)cc1)N1CCC(c2nc(-c3cccs3)no2)CC1 | 0.206 µM [rising, full curve] | – |

Single records (already shown). Values in the order: AC50 [1]	AC50 [2]
CCOC(=O)c1c(NC(=O)C2CCCCC2C(=O)O)sc2c1CCCCC2 (centres undefined) in the list: 22.4 µM [falling, single point]	–
CCCn1nnnc1SCC(=O)NNC(=O)C1CCCCC1 in the list: 0.631 µM [rising, full curve, poor fit]	–

Among those listed so far, two have two or more sulfur atoms.

| SMILES | AC50 [1] | AC50 [2] |
| --- | --- | --- |
| Cc1cc(NC(=O)C2CCN(S(=O)(=O)c3cccs3)CC2)no1 | 10 µM [falling, partial curve, poor fit] | – |
| Cc1ccc(C(=O)Nc2ncc(C)s2)s1 | 14.1 µM [falling, single point] | – |

Additional records.

| SMILES | AC50 [1] | AC50 [2] |
| --- | --- | --- |
| CCCCN1C(=O)C(O)(CC(=O)c2ccccn2)c2ccccc21 (centres undefined) | 20 µM [rising, single point] | – |
| CCOCCCNC(=O)C1CCN(C(=O)Nc2ccc(Cl)cc2)CC1 | 18.4 µM [rising, partial curve, poor fit] | – |
| CC(Oc1ccccc1Cl)C(=O)Nc1ccccc1C(=O)N1CCOCC1 (centres undefined) | 0.631 µM [rising, partial curve, poor fit] | – |
| O=C(NC1CCCC1)c1ccccc1OCc1ccccc1 | 5.62 µM [rising, single point] | 25.1 µM [rising, partial curve, poor fit] |
| COc1ccc(/C=C/C(=O)Nc2cccc(F)c2)cc1S(=O)(=O)N1CCOCC1 | 17.8 µM [falling, single point] | – |
| CCN1CCN(S(=O)(=O)c2ccc3ccccc3c2)CC1 | 6.51 µM [rising, single point] | – |
| Cc1c(C(=O)Nc2ccc(F)cc2)oc2ccc(S(=O)(=O)N3CCCCCC3)cc12 | 3.55 µM [falling, full curve] | 1.12 µM [rising, full curve, poor fit] |
| Cn1cc(Br)c(C(=O)NNC(=O)c2ccc(Br)cc2)n1 | 16.4 µM [falling, partial curve] | – |
| CN(C(=O)c1ccncc1)c1nnc(-c2ccccn2)s1 | 0.411 µM [rising, full curve, poor fit] | – |
| CCOC(=O)N/N=C/c1c[nH]c2ccccc12 | 35.5 µM [falling, single point] | – |
| CC(NC(=O)c1cccc(S(=O)(=O)N2CCN(C)CC2)c1)c1ccc(Cl)cc1Cl (centres undefined) | 32.6 µM [falling, partial curve, poor fit] | – |
| O=C1CC(N2CCN(c3ccccc3Cl)CC2)C(=O)N1c1cccc(F)c1 (centres undefined) | 29.1 µM [rising, single point] | – |
| CCOC(=O)NC(=O)c1cn(-c2ccc(OC)cc2)c(=O)[nH]c1=O | 22.4 µM [rising, single point] | – |
| COc1ccccc1/C=C/C=N/NC(=O)c1ccccn1 | 1.41 µM [falling, full curve] | – |
| CC12CCC(=O)N1C(C(=O)N1CCN(S(=O)(=O)c3cccc(C(F)(F)F)c3)CC1)CS2 (centres undefined) | 2.31 µM [rising, partial curve] | – |
| CCCc1cc(=O)oc2cc(OCC(=O)NCCCn3ccnc3)ccc12 | 12.6 µM [rising, partial curve, poor fit] | – |
| COc1ccc2c(C(=O)NCCCCO)c(-c3ccc(S(C)(=O)=O)cc3)sc2c1 | 6.51 µM [rising, partial curve, poor fit] | – |
| COc1ccc(-c2noc(CCCC(=O)NCc3ccco3)n2)cc1OC | 7.94 µM [falling, partial curve] | – |
| COc1ccc(NC(=O)CN(C)C(=O)c2ccc(OCc3ccccc3)c(OC)c2)cc1 | 29.1 µM [falling, single point] | – |
| Cc1ccc(C2CCN(C(=S)NC(C)(C)C)C2)cc1 (centres undefined) | 5.62 µM [rising, full curve] | 11.2 µM [rising, partial curve, poor fit] |

| SMILES | AC50 [1] | AC50 [2] |
| --- | --- | --- |
| Nc1nnnn1/N=C/c1ccccc1OCc1ccc(Cl)cc1 | 4.11 µM [rising, partial curve, poor fit] | – |
| S=c1[nH]nc(-c2cc(-c3ccccc3)n[nH]2)n1/N=C/c1ccc(Br)s1 | 35.5 µM [falling, single point] | – |
| COc1ccccc1OCC(=O)N/N=C1\CCCCc2ccccc21 | 35.5 µM [falling, single point] | – |
| Cc1cc(C)nc(NS(=O)(=O)c2ccc(N/C=C3\CCCC3=O)cc2)n1 | 11.6 µM [rising, partial curve, poor fit] | – |
| Cc1ccc(-n2nnnc2Sc2nc([N+](=O)[O-])nn2C)cc1C | 8.91 µM [falling, partial curve, poor fit] | – |
| Cn1nc([N+](=O)[O-])nc1Sc1cccc2cccnc12 | 35.5 µM [falling, single point] | – |
| CCCCC(=O)Nc1ccc(C)c(S(=O)(=O)N2CCCCCC2)c1 | 29.1 µM [rising, single point] | – |
| O=C(c1cc2cc(Br)ccc2o1)N1CCN(c2ccccc2)CC1 | 0.891 µM [falling, full curve] | – |
| COC(=O)c1cnc(Oc2ccc(NC(=O)NC(=O)c3c(OC)cccc3OC)cc2)cc1C(F)(F)F | 3.98 µM [rising, full curve, poor fit] | 3.98 µM [falling, full curve] |
| CCC1CCCCN1C(=O)COC(=O)c1cccs1 (centres undefined) | 5.8 µM [falling, single point] | – |
| CN(CC(O)Cn1cnc2c1c(=O)n(C)c(=O)n2C)c1ccccc1 (centres undefined) | 12.6 µM [rising, partial curve, poor fit] | – |
| C=CCNC(=O)/C(C#N)=C/c1cn(-c2ccccc2)nc1-c1ccc(OC)c([N+](=O)[O-])c1 | 14.6 µM [rising, single point] | 2.59 µM [falling, full curve] |
| CN(CCC(=O)Nc1ccc(Br)cc1)Cc1ccccc1 | 13 µM [falling, partial curve, poor fit] | – |
| COc1cccc(C(=O)NNC(=O)C(=O)Nc2ccc(C)c(Cl)c2)c1 | 8.91 µM [falling, partial curve, poor fit] | – |
| COc1ccc(S(=O)(=O)N2CCC(C(=O)NC3CCCCC3)CC2)cc1OC | 32.6 µM [rising, partial curve, poor fit] | – |
| O=c1cc(CSc2nnc(Nc3ccccc3F)s2)nc2sccn12 | 11.2 µM [falling, partial curve, poor fit] | – |
| Cc1ccc(S(=O)(=O)Nc2cc(-c3nn(C)c(=O)c4ccccc34)ccc2N2CCOCC2)cc1 | 18.4 µM [rising, single point] | 20.6 µM [falling, single point] |
| Cc1ccc(S(=O)(=O)N(C)C)cc1NC(=O)c1ccccc1Br | 0.1 µM [rising, full curve, poor fit] | – |
| CCOc1ccccc1C(C(=O)NCCOC)N(CCOC)C(=O)Cn1nnc2ccccc21 (centres undefined) | 0.0891 µM [rising, full curve, poor fit] | – |
| O=C(Nc1cccc([N+](=O)[O-])c1)c1ccc2nsnc2c1 | 15.8 µM [falling, single point] | – |
